Results as given in PubChem BioAssay AID445 (National Center for Advancing Translational Sciences (NCATS), 2006).
Where “and” joins values, the source holds several entries; their conditions need not be identical. Identical values can stand only once. The list shows a part of the results. The main result of the screen is listed elsewhere. These columns were measured beside it and carry no call. The list favours compounds with an active or inconclusive main result. Potencies come from curve fits of mixed quality, noted in brackets.

Test: IkB Signaling
Details: ABC-DLBCL IkBa-CBG/CBR dual luciferase ratio (green luciferase fused to IkBa over red control in OCI-Ly3 lymphoma cells), 4 h
How it was run: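 Luminescence ratio of IκBα-fused green versus native red beetle luciferase in OCI-Ly3 cells, 4 h post-doxycycline with compound; red signal alone, scaled from basal (0%) to zero light (-100%), flagged nonspecific or cytotoxic effects.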

[1] = measured here: control luc red channel
[2] = measured here: IkB-luc green channel

Row | SMILES | AC50 [1] | AC50 [2]
1 | C[C@@H]1O[C@@H](O[C@H]2C[C@@H](O)[C@@]3(CO)[C@H]4[C@H](O)C[C@]5(C)[C@@H](C6=CC(=O)OC6)CC[C@]5(O)[C@H]4CC[C@@]3(O)C2)[C@@H](O)[C@H](O)[C@H]1O | 0.251 µM [falling, full curve] | 
2 | Cc1ccc(-n2c(/C=C/c3ccc(Br)s3)nc3ccccc3c2=O)cc1C | 25.1 µM [falling, single point] | 
3 | CC(=O)[O][Hg][c]1ccccc1 | 2 µM [falling, full curve] | 
4 | CCSc1cc(C2C(C#N)=C(N)Oc3n[nH]c(C)c32)c(C)o1 (stereo not given) |  | 25.1 µM [rising, partial curve]
5 | O=C(O)CN1CCN(CC(=O)O)CC(=O)[O][Hg][O]C(=O)C1 |  | 5.01 µM [rising, partial curve]
6 | Cc1c(C(c2ccc(F)cc2)c2c(O)c3ccccc3oc2=O)c(=O)n(-c2ccccc2)n1C (stereo not given) | 15.8 µM [falling, single point] | 
7 | O=C1CC(c2c(F)cccc2Cl)c2c(c3ccccc3oc2=O)O1 (stereo not given) | 0.00631 µM [falling, full curve, poor fit] | 
8 | COC(=O)CSC1=NP(=S)(SCC(=O)OC)N2CCCC2=C1C#N (stereo not given) | 12.6 µM [falling, partial curve] | 
9 | O=S1(=O)N(CCN2CC=C(c3c[nH]c4cc(F)ccc34)CC2)c2cccc3c2N1CCC3 |  | 10 µM [rising, partial curve]
10 | N#CC(C#N)=Cc1ccc([N+](=O)[O-])c(O)c1 |  | 5.01 µM [rising, partial curve, poor fit]
11 | O=C1CC(c2ccc(Br)cc2)c2c(c3ccccc3oc2=O)O1 (stereo not given) |  | 6.31 µM [rising, single point]
12 | O=C(CCCN1CCC2(CC1)C(=O)N(Cc1cccc(F)c1)CN2c1ccccc1)c1ccc(F)cc1 | 39.8 µM [falling, partial curve] | 
13 | O=C1CN(C(=O)CN2CCCCC2)C(c2ccccc2)c2cc(Br)ccc2N1 (stereo not given) | 20 µM [falling, single point] | 
14 | CN1[C@@H]2CC[C@H]1CC(OC(c1ccc(F)cc1)c1ccc(F)cc1)C2 (stereo not given in full) | 31.6 µM [falling, partial curve] | 
15 | O=C(Nc1ccon1)c1cccn(Cc2cccc(Cl)c2)c1=O | 12.6 µM [falling, partial curve, poor fit] | 
16 | Cc1oc(-c2ccc(Cl)cc2)nc1CN1C(=O)CN=C(c2ccccc2)c2ccccc21 | 20 µM [falling, single point] | 
17 | Cc1cccc(NC(=O)Cn2cc(C(=O)c3ccccc3)c3ccccc32)c1C | 3.98 µM [falling, full curve] | 
18 | O=c1[nH]c2ccccc2c(=O)n1-c1ccc(Cl)c(Cl)c1 | 1.58 µM [falling, full curve] | 
19 | Nc1ccccc1C(=O)OCCc1ccccc1 | 12.6 µM [falling, partial curve] | 7.94 µM [rising, partial curve]
20 | CN(C)c1ccc(N)cc1 | 2.51 µM [falling, full curve] | 
21 | O=C1C(Cl)=C(Cl)C(=O)C(Cl)=C1Cl | 3.98 µM [falling, full curve] | 
22 | CCCCCC[C@H]1C(=O)O[C@H](C)[C@H](NC(=O)c2cccc(NC=O)c2O)C(=O)O[C@@H](C)[C@H]1OC(=O)CC(C)C | 5.01 µM [falling, partial curve] | 
23 | O=C1C2CCN(CC2)C1(CO)CO | 31.6 µM [falling, partial curve] | 

Row | SMILES | AC50 [1] | AC50 [2]
24 | C[C@]12Cc3cn4c(nc3C=C1CC[C@H]1[C@@H]2CC[C@@]2(C)[C@H]1CC[C@@]2(O)C#N)nc1ccccc14 | 15.8 µM [falling, full curve, poor fit] | 31.6 µM [falling, partial curve, poor fit]
25 | COc1ccc(CN2CCN(C(=O)COc3cccc(C)c3)CC2)c(OC)c1 |  | 0.2 µM [rising, full curve, poor fit]
26 | O=C(Nc1cc(C(F)(F)F)cc(C(F)(F)F)c1)c1cccn(Cc2ccccc2Cl)c1=O | 1 µM [rising, full curve] | 
27 | CN[C@@H]1C[C@H](c2ccc(Cl)c(Cl)c2)c2ccccc21 | 39.8 µM [falling, partial curve] | 
28 | N#C/C=C/C#N | 15.8 µM [falling, partial curve, poor fit] | 
29 | O=C1C2(Cl)C3(Cl)C4(Cl)C(Cl)(Cl)C5(Cl)C3(Cl)C1(Cl)C5(Cl)C24Cl (stereo not given) | 39.8 µM [falling, partial curve, poor fit] and 39.8 µM [falling, partial curve] | 
30 | C[C@@]12CC[C@H](O)C[C@@H]1CC[C@H]1[C@@H]2C[C@@H](O)[C@]2(C)[C@@H](C3=CC(=O)OC3)CC[C@]12O | 10 µM [falling, partial curve] | 
31 | N#C/C(=C\c1ccc(O)c(O)c1)C(N)=S | 20 µM [falling, partial curve] | 
32 | Cc1ccc(NC(=O)c2cccn(Cc3ccccc3C)c2=O)c(C)c1 | 1 µM [falling, partial curve, poor fit] | 
33 | CCC(C)NC(=O)c1c(N)n(CC2CCCO2)c2nc3ccccc3nc12 (stereo not given) | 15.8 µM [falling, partial curve] | 
34 | CC(C)OCCCNC(=O)c1c(N)n(Cc2cccs2)c2nc3ccccc3nc12 | 15.8 µM [falling, partial curve] | 
35 | COc1cccc(-n2c(/C=C/c3ccccc3O)nc3ccccc3c2=O)c1 | 0.631 µM [falling, full curve] | 
36 | Nc1c(C(=O)Nc2ccc(Cl)c(C(F)(F)F)c2)sc2nc3c(cc12)N1CCC3CC1 | 12.6 µM [falling, partial curve] | 
37 | CN(C)CCc1nc2ccccc2c(=O)n1-c1ccccc1 | 12.6 µM [falling, partial curve] | 
38 | CCCCCc1nc2ccccc2c(=O)n1-c1ccc(C)cc1 | 31.6 µM [falling, partial curve] | 
39 | Cc1ccccc1-n1nc(C)c2c1NC(=O)CSC2c1ccc(N(C)C)cc1 (stereo not given) | 39.8 µM [falling, single point] | 
40 | Cc1ccc(NC(=O)CN2C(=O)CN=C(c3ccccc3)c3ccccc32)cc1 | 20 µM [falling, partial curve, poor fit] | 
41 | Cc1ccc(CN2C(=O)c3ccccc3Sc3ccc(C(=O)N4CCC5(CC4)OCCO5)cc32)cc1 | 25.1 µM [falling, partial curve] | 
42 | CC(C)(C)c1nc(N2CCN(C(=O)c3ccco3)CC2)c2nnn(Cc3ccccc3Cl)c2n1 | 31.6 µM [falling, partial curve] | 
43 | O=C1NC(=O)[C@]2(Cc3ccccc3N3CCN(c4ccccc4)CC32)C(=O)N1Cc1ccccc1 (stereo not given in full) | 0.794 µM [falling, full curve] | 
44 | COc1cccc(OC)c1C1=NCC(=O)Nc2c1oc1ccc(Br)cc21 | 0.631 µM [rising, full curve] | 2 µM [rising, full curve]
45 | N[C@@H](Cc1c[nH]c2ccccc12)c1nnc(SCc2ccc(F)cc2)o1 | 25.1 µM [falling, partial curve] | 
46 | O=C(O)c1cc[c]([Hg][Cl])cc1 |  | 39.8 µM [rising, partial curve]

Row | SMILES | AC50 [1] | AC50 [2]
47 | CCCOc1ccc(C2SCC(=O)Nc3c2c(C)nn3-c2cccc(C)c2)cc1OC (stereo not given) | 12.6 µM [falling, partial curve] | 
48 | COc1cccc(NC(=O)Cn2cc(C(=O)c3ccccc3)c3ccccc32)c1 | 20 µM [falling, partial curve] | 
49 | CCN(CC)CCSc1nc2ccccc2c(=O)n1-c1ccc(Cl)cc1 | 15.8 µM [falling, partial curve] | 
50 | Cc1cccc(Cn2cccc(C(=O)Nc3ccc4c(c3)OCCO4)c2=O)c1 | 39.8 µM [falling, partial curve] | 
51 | Cc1cccc(-c2nc(CN3C(=O)CN=C(c4ccccc4)c4ccccc43)c(C)o2)c1 | 20 µM [falling, partial curve] | 
52 | COc1ccc(C(c2ccc(OC)cc2)C(Cl)(Cl)Cl)cc1 | 2.51 µM [falling, full curve, poor fit] | 
53 | CC1CCCCN1CC(=O)c1ccc2cc[nH]c2c1 (stereo not given) | 10 µM [falling, partial curve] | 
54 | C[C@@H](Cc1cccc(C(F)(F)F)c1)NCCCc1ccccc1 | 31.6 µM [falling, partial curve, poor fit] | 
55 | Cc1ccc(NC(=O)Cn2cc(C(=O)c3ccccc3)c3ccccc32)cc1 | 3.98 µM [falling, partial curve] | 
56 | Cn1c(=O)n(C)c2cc(CNCCc3ccc(F)cc3)ccc21 | 12.6 µM [rising, partial curve] | 
57 | Cc1ccc2nc(NC(=O)c3cccn(Cc4ccc(Cl)cc4)c3=O)sc2c1 | 15.8 µM [falling, partial curve] | 
58 | Cc1nn(-c2ccccc2)c(Cl)c1C1C(C#N)=C(N)Oc2c1c(=O)oc1ccccc21 (stereo not given) | 15.8 µM [falling, partial curve] | 
59 | CCn1cnc2c(Nc3cccc(Cl)c3)nc(N[C@@H]3CCCC[C@H]3N)nc21 | 3.16 µM [falling, full curve] | 2.51 µM [falling, full curve]
60 | COc1ccccc1OCCCn1cc(C(=O)c2ccco2)c2ccccc21 | 39.8 µM [falling, single point] | 
61 | COC(=O)c1c(N)n(Cc2ccc(OC)cc2)c2nc3ccccc3nc12 | 31.6 µM [falling, single point] | 
62 | CCCn1c(C)c(C(=O)c2cccc3ccccc23)c2ccccc21 | 31.6 µM [falling, partial curve, poor fit] | 
63 | COc1ccc(C[C@@H]2NC[C@H](O)[C@@H]2OC(C)=O)cc1 | 0.158 µM [falling, full curve] | 
64 | COc1ccc(NC(=O)c2sc3nc4c(cc3c2N)N2CCC4CC2)cc1OC | 39.8 µM [falling, single point] | 
65 | Cc1cccc(CN2CC=C(c3noc(CCC(=O)Nc4ccc(C)c(F)c4)n3)CC2)c1 | 39.8 µM [falling, partial curve] | 
66 | C=C[C@@H]1CN2CC[C@@H]1C[C@H]2[C@H](O)c1ccnc2ccccc12 | 0.316 µM [rising, single point] | 
67 | COC[C@H]1OC(=O)c2coc3c2[C@@]1(C)C1=C(C3=O)[C@H]2CCC(=O)[C@@]2(C)C[C@H]1OC(C)=O | 10 µM [rising, partial curve] | 39.8 µM [rising, partial curve]
68 | CC(C)(C)c1cc(O)ccc1O | 15.8 µM [falling, partial curve] | 15.8 µM [rising, full curve]
69 | N[C@@H](Cc1c[nH]c2ccccc12)c1nnc(SCc2ccc(Cl)cc2)o1 | 15.8 µM [falling, partial curve] | 
